From the supplement of paper PMC6078165
± gives the standard deviation of the averaged measurements. The reference is the same well before dosing, and untreated signal decays as well.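 Labels refer to human fibroblasts, largely primary: uterine (C12385, HUF), lung (H6013), bone (Hs27A), adrenal (HADF), skin (WS1), plus mammary HMF and breast cancer-associated Hs343T. Cancer lines are basal-like or mesenchymal-like triple-negative breast cancer. The paper counts as hits responses shifting over 3x the replicate standard deviation. The tissue of the other fibroblasts is not given here.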

Test system: MDAMB436
Test: relative JC-1 red fluorescence (viability) vs pre-drug, coculture with fibroblast (fraction); higher = more viable cancer cells
Settings: 100 µM
Experimental: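 JC-1 labelled TNBC cells cocultured 1:1 (1,500 cells each) with CellTrace Violet stained primary or stromal fibroblasts in 384-well plates in FluoroBrite medium, treated with one of 42 anticancer drugs at 0.1, 1, 10 or 100 uM. JC-1 red fluorescence (mitochondrial integrity in cancer cells only) was read by plate reader every 8 h for 72 h. Values are normalised to each well's pre-drug value. The stock of one drug was tenfold lower, so its dose labels may be too high.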

CC(C)(C#N)c1cc(Cn2cncn2)cc(C(C)(C)C#N)c1 [Anastrozole]
relative JC-1 red fluorescence
Settings	8 h	16 h	24 h	32 h	40 h	48 h	56 h	64 h	72 h
coculture fibroblast: C12385	0.835 ± 0.022	0.744 ± 0.02	0.754 ± 0.016	0.685 ± 0.03	0.653 ± 0.045	0.631 ± 0.033	0.605 ± 0.042	0.585 ± 0.058	0.577 ± 0.06
coculture fibroblast: H6013	0.8765 ± 0.006	0.797 ± 0.013	0.809 ± 0.039	0.81 ± 0.029	0.793 ± 0.046	0.815 ± 0.042	0.773 ± 0.046	0.753 ± 0.04	0.705 ± 0.049
coculture fibroblast: H6019	0.791 ± 0.022	0.716 ± 0.022	0.7137 ± 0.0062	0.659 ± 0.011	0.6353 ± 0.0043	0.62402 ± 3.7e-05	0.5849 ± 0.0025	0.551 ± 0.013	0.52 ± 0.014
coculture fibroblast: H6076	0.788 ± 0.018	0.6729 ± 0.0039	0.6312 ± 0.0057	0.595 ± 0.01	0.5727 ± 0.0031	0.547 ± 0.0065	0.54 ± 0.0056	0.536 ± 0.014	0.529 ± 0.008
coculture fibroblast: H6231	0.8 ± 0.037	0.706 ± 0.052	0.663 ± 0.093	0.626 ± 0.091	0.587 ± 0.1	0.545 ± 0.094	0.53 ± 0.099	0.513 ± 0.095	0.491 ± 0.091
coculture fibroblast: HADF	0.853 ± 0.009	0.792 ± 0.014	0.786 ± 0.019	0.758 ± 0.013	0.729 ± 0.009	0.733 ± 0.0076	0.6686 ± 0.00078	0.6501 ± 0.0046	0.6025 ± 0.0029
coculture fibroblast: HCFa	0.84 ± 0.019	0.781 ± 0.04	0.775 ± 0.059	0.748 ± 0.055	0.715 ± 0.065	0.724 ± 0.069	0.649 ± 0.073	0.631 ± 0.078	0.581 ± 0.073
coculture fibroblast: HCPF	0.789 ± 0.01	0.724 ± 0.022	0.627 ± 0.034	0.612 ± 0.052	0.581 ± 0.058	0.542 ± 0.058	0.512 ± 0.066	0.494 ± 0.07	0.471 ± 0.071
coculture fibroblast: HHSteC	0.8824 ± 0.0069	0.828 ± 0.017	0.801 ± 0.036	0.777 ± 0.034	0.762 ± 0.032	0.772 ± 0.024	0.708 ± 0.03	0.681 ± 0.023	0.627 ± 0.021
coculture fibroblast: HMF	0.8042 ± 0.0022	0.717 ± 0.014	0.613 ± 0.015	0.6013 ± 0.0048	0.5659 ± 0.0051	0.534 ± 0.0093	0.515 ± 0.012	0.498 ± 0.013	0.482 ± 0.0066
coculture fibroblast: HPFa	0.935 ± 0.045	0.876 ± 0.054	0.848 ± 0.064	0.801 ± 0.071	0.769 ± 0.059	0.757 ± 0.055	0.671 ± 0.043	0.618 ± 0.037	0.537 ± 0.033
coculture fibroblast: HUF	0.8744 ± 0.004	0.7869 ± 0.0053	0.753 ± 0.013	0.688 ± 0.012	0.632 ± 0.01	0.5965 ± 0.0042	0.5545 ± 0.0023	0.5257 ± 0.0015	0.512 ± 0.0075
coculture fibroblast: Hs5	0.84429 ± 0.00036	0.759 ± 0.026	0.715 ± 0.034	0.663 ± 0.042	0.644 ± 0.043	0.595 ± 0.056	0.59 ± 0.055	0.56 ± 0.06	0.534 ± 0.059
coculture fibroblast: Hs27A	0.834 ± 0.023	0.78 ± 0.035	0.758 ± 0.026	0.735 ± 0.024	0.709 ± 0.022	0.736 ± 0.0074	0.652 ± 0.015	0.622 ± 0.022	0.546 ± 0.029
coculture fibroblast: Hs343T	0.806 ± 0.042	0.708 ± 0.069	0.627 ± 0.084	0.623 ± 0.096	0.582 ± 0.1	0.556 ± 0.099	0.535 ± 0.1	0.522 ± 0.098	0.517 ± 0.088
coculture fibroblast: WS1	0.832 ± 0.009	0.739 ± 0.04	0.74 ± 0.033	0.679 ± 0.035	0.632 ± 0.034	0.624 ± 0.042	0.599 ± 0.046	0.567 ± 0.053	0.548 ± 0.048
